Test results from publication PMC8892516, “Intragenic suppressors unravel the role of the SCREAM ACT-like domain for bHLH partner selectivity in stomatal development” (Proceedings of the National Academy of Sciences of the …, 2022).
No constants are given. Whether binding was seen depends on the method and setting. For some of these results: A result given as binding can be weak or reduced; the word gives no strength. Tags and fused reporters may be left off the sequences shown. For some of these results: In cells and extracts the contact can be indirect.

T1: MUTE fused to the DNA binding domain (Arabidopsis thaliana) (UniProt Q9M8K6)
T1 sequence: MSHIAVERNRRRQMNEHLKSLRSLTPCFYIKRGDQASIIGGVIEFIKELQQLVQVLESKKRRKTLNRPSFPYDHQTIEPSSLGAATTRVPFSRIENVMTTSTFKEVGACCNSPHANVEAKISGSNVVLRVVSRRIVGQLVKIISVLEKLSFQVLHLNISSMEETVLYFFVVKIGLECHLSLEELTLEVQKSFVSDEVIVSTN

T2: FAMA-nYFP (Arabidopsis thaliana) (UniProt Q56YJ8)
T2 sequence: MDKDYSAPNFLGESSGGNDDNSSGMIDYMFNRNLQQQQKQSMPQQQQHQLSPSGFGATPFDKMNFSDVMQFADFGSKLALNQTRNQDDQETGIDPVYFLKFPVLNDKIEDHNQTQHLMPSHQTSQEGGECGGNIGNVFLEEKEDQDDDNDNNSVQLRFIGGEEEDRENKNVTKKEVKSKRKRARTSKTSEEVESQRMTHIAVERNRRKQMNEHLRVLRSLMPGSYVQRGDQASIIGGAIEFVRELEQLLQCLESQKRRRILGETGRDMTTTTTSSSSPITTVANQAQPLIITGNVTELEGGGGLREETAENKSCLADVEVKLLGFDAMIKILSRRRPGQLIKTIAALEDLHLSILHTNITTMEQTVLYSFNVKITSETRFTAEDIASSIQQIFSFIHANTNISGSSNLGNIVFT

T3: SPCH-nYFP (Arabidopsis thaliana) (UniProt Q700C7)
T3 sequence: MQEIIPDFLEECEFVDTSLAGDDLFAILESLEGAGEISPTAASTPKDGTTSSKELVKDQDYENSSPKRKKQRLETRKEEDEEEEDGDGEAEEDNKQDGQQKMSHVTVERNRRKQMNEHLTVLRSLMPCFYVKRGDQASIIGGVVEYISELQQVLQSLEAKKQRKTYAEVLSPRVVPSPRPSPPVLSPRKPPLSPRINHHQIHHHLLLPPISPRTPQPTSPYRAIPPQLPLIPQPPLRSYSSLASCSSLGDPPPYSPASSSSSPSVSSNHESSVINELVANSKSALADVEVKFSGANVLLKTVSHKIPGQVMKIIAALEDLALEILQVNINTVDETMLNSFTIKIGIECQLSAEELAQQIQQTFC

T4: MUTE-nYFP (Arabidopsis thaliana) (UniProt Q9M8K6)
T4 sequence: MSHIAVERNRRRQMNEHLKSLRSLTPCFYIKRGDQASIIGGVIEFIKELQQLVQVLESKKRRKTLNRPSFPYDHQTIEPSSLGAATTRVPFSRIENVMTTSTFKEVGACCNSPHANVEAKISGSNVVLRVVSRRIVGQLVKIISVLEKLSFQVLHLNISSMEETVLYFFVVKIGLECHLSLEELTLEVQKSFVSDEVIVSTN


Assays:
[1] = molecular target: T1, MUTE fused to the DNA binding domain (Arabidopsis thaliana); assay: two-hybrid; Matchmaker 3 system, yeast AH109; DNA binding domain fusions as bait, activation domain fusions as prey; SD -Trp -Leu -His with 0.1, 0.5 and 1 mM 3-amino-1,2,4-triazole
[2] = molecular target: T2, FAMA-nYFP (Arabidopsis thaliana); assay: split reporter; BiFC, nYFP and cYFP fusions coinfiltrated with p19 into N. benthamiana leaves, confocal imaging 2 d after infiltration
[3] = molecular target: T3, SPCH-nYFP (Arabidopsis thaliana); assay: as above
[4] = molecular target: T4, MUTE-nYFP (Arabidopsis thaliana); assay: as above
[5] = molecular target: scrm-DΔC-cYFP (Arabidopsis thaliana) (UniProt Q9LSE2); assay: split reporter; BiFC; N. benthamiana leaves co-infiltrated with nYFP and cYFP fusions and p19; confocal imaging 2 d after infiltration
[6] = molecular target: ΔNSPCH fused to the DNA binding domain (Arabidopsis thaliana); assay: two-hybrid; Matchmaker 3 system, yeast AH109; DNA binding domain fusions as bait, activation domain fusions as prey; SD -Trp -Leu -His with 0.1, 0.5 and 1 mM 3-amino-1,2,4-triazole
[7] = molecular target: ΔNFAMA fused to the DNA binding domain (Arabidopsis thaliana); assay: as above

Row | binding [6] | binding [7] | Molecule | other results
1 | – | – | SCRMΔC fused to the activation domain (Arabidopsis thaliana) (domain or fragment) | binding [1]: no binding
2 | – | – | scrm-DΔC-cYFP (Arabidopsis thaliana) (domain or fragment) | binding [2]: binds; binding [3]: binds; binding [4]: no binding
3 | – | – | SCRMΔC-cYFP (Arabidopsis thaliana) (domain or fragment) | binding [2]: binds; binding [3]: binds
4 | – | – | scrm-DΔC fused to the activation domain (Arabidopsis thaliana) (domain or fragment) | binding [1]: no binding
5 | – | – | MUTE-nYFP (protein, UniProt Q9M8K6 1-202) MSHIAVERNRRRQMNEHLKSLRSLTPCFYIKRGDQASIIGGVIEFIKELQQLVQVLESKKRRKTLNRPSFPYDHQTIEPSSLGAATTRVPFSRIENVMTTSTFKEVGACCNSPHANVEAKISGSNVVLRVVSRRIVGQLVKIISVLEKLSFQVLHLNISSMEETVLYFFVVKIGLECHLSLEELTLEVQKSFVSDEVIVSTN | binding [5]: no binding
6 | binds | binds | SCREAM (SCRM) fused to the activation domain (protein, UniProt Q9LSE2 1-494) MGLDGNNGGGVWLNGGGGEREENEEGSWGRNQEDGSSQFKPMLEGDWFSSNQPHPQDLQMLQNQPDFRYFGGFPFNPNDNLLLQHSIDSSSSCSPSQAFSLDPSQQNQFLSTNNNKGCLLNVPSSANPFDNAFEFGSESGFLNQIHAPISMGFGSLTQLGNRDLSSVPDFLSARSLLAPESNNNNTMLCGGFTAPLELEGFGSPANGGFVGNRAKVLKPLEVLASSGAQPTLFQKRAAMRQSSGSKMGNSESSGMRRFSDDGDMDETGIEVSGLNYESDEINESGKAAESVQIGGGGKGKKKGMPAKNLMAERRRRKKLNDRLYMLRSVVPKISKMDRASILGDAIDYLKELLQRINDLHNELESTPPGSLPPTSSSFHPLTPTPQTLSCRVKEELCPSSLPSPKGQQARVEVRLREGRAVNIHMFCGRRPGLLLATMKALDNLGLDVQQAVISCFNGFALDVFRAEQCQEGQEILPDQIKAVLFDTAGYAGMI | –
7 | binds | binds | scrm-D fused to the activation domain (protein, UniProt Q9LSE2 1-494) MGLDGNNGGGVWLNGGGGEREENEEGSWGRNQEDGSSQFKPMLEGDWFSSNQPHPQDLQMLQNQPDFRYFGGFPFNPNDNLLLQHSIDSSSSCSPSQAFSLDPSQQNQFLSTNNNKGCLLNVPSSANPFDNAFEFGSESGFLNQIHAPISMGFGSLTQLGNRDLSSVPDFLSARSLLAPESNNNNTMLCGGFTAPLELEGFGSPANGGFVGNRAKVLKPLEVLASSGAQPTLFQKHAAMRQSSGSKMGNSESSGMRRFSDDGDMDETGIEVSGLNYESDEINESGKAAESVQIGGGGKGKKKGMPAKNLMAERRRRKKLNDRLYMLRSVVPKISKMDRASILGDAIDYLKELLQRINDLHNELESTPPGSLPPTSSSFHPLTPTPQTLSCRVKEELCPSSLPSPKGQQARVEVRLREGRAVNIHMFCGRRPGLLLATMKALDNLGLDVQQAVISCFNGFALDVFRAEQCQEGQEILPDQIKAVLFDTAGYAGMI | –
8 | binds | binds | scrm-D_(L484F) fused to the activation domain (protein, UniProt Q9LSE2 1-494) MGLDGNNGGGVWLNGGGGEREENEEGSWGRNQEDGSSQFKPMLEGDWFSSNQPHPQDLQMLQNQPDFRYFGGFPFNPNDNLLLQHSIDSSSSCSPSQAFSLDPSQQNQFLSTNNNKGCLLNVPSSANPFDNAFEFGSESGFLNQIHAPISMGFGSLTQLGNRDLSSVPDFLSARSLLAPESNNNNTMLCGGFTAPLELEGFGSPANGGFVGNRAKVLKPLEVLASSGAQPTLFQKHAAMRQSSGSKMGNSESSGMRRFSDDGDMDETGIEVSGLNYESDEINESGKAAESVQIGGGGKGKKKGMPAKNLMAERRRRKKLNDRLYMLRSVVPKISKMDRASILGDAIDYLKELLQRINDLHNELESTPPGSLPPTSSSFHPLTPTPQTLSCRVKEELCPSSLPSPKGQQARVEVRLREGRAVNIHMFCGRRPGLLLATMKALDNLGLDVQQAVISCFNGFALDVFRAEQCQEGQEILPDQIKAVFFDTAGYAGMI | –
9 | binds | binds | SCRM_(L484F) fused to the activation domain (protein, UniProt Q9LSE2 1-494) MGLDGNNGGGVWLNGGGGEREENEEGSWGRNQEDGSSQFKPMLEGDWFSSNQPHPQDLQMLQNQPDFRYFGGFPFNPNDNLLLQHSIDSSSSCSPSQAFSLDPSQQNQFLSTNNNKGCLLNVPSSANPFDNAFEFGSESGFLNQIHAPISMGFGSLTQLGNRDLSSVPDFLSARSLLAPESNNNNTMLCGGFTAPLELEGFGSPANGGFVGNRAKVLKPLEVLASSGAQPTLFQKRAAMRQSSGSKMGNSESSGMRRFSDDGDMDETGIEVSGLNYESDEINESGKAAESVQIGGGGKGKKKGMPAKNLMAERRRRKKLNDRLYMLRSVVPKISKMDRASILGDAIDYLKELLQRINDLHNELESTPPGSLPPTSSSFHPLTPTPQTLSCRVKEELCPSSLPSPKGQQARVEVRLREGRAVNIHMFCGRRPGLLLATMKALDNLGLDVQQAVISCFNGFALDVFRAEQCQEGQEILPDQIKAVFFDTAGYAGMI | –
